Data taken from ChEMBL document CHEMBL3988442, “University of Dundee, Small-Polar-MMV Screening Library” (2021).

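Whole-parasite assay of Trypanosoma brucei over 72 hours; the read-out is not stated. Compounds at 30 µM. The record gives no direction; compounds that gave an IC50 in retests scored well above the rest, so higher reads as stronger inhibition. Values scatter widely below zero; nearly all retest evidence comes from the higher of the two concentrations used. Size under these conditions: about 64,000 compounds, about 940 of them at 50% or above in at least one test.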

Values are the deposited “Percent Effect”, in %.
The controls that fix the scale are not given in the record; negative values are as filed.
The compounds are a random part of those screened.

Compound: c1cc(-c2noc([C@@H]3Cc4nc[nH]c4CN3)n2)ccn1
percent effect: -1.113

Compound: CN(C)C(=O)CCC1CCCN(Cc2ccc(-c3cccnc3)cc2)C1 (stereo not given)
percent effect: -19.98

Compound: CN1C(=O)C2(CCN(Cc3nccn3C)CC2)c2ccccc21.O=C(O)C(F)(F)F
percent effect: -17.37

Compound: CCOc1cccc(CNC(C)c2ccc(-n3ccnc3)cc2)c1O (stereo not given)
percent effect: -27.02

Compound: [H][C@@]12CCCO[C@]1([H])[C@H](N1CCCC1=O)CN2Cc1cnn(C)c1
percent effect: -31.29

Compound: NC(=O)CN1CCOCC(Cc2ccccc2)C1 (stereo not given)
percent effect: 9.865

Compound: O=C1NCCCCC1SCc1coc(-c2cccc(F)c2)n1 (stereo not given)
percent effect: -49.96

Compound: Cc1nc(CN2CCCC(NCCOCC(F)(F)F)C2)no1 (stereo not given)
percent effect: -4.334

Compound: Cc1ccc(-c2nnc(CN3CCn4c(nnc4C4CC4)C3)o2)cc1
percent effect: 9.422

Compound: O=C(Cc1ccc(O)c(F)c1)N1CCC2(CCNCC2)CC1
percent effect: -20.47

Compound: Cn1ncc2c1NC(=O)CC2c1cc(Cl)ccc1F (stereo not given)
percent effect: -21.53

Compound: COc1ncnc(N)c1CNCCOc1ccccc1Cl
percent effect: -14.58

Compound: O=C(CN1CCC(c2ccnn2CCO)CC1)NCc1cccs1
percent effect: 41.89

Compound: Cc1cc(C)n2c(CNCc3ccc(OC(F)F)cc3)cnc2n1
percent effect: -23.12

Compound: O=C(O)C(F)(F)F.[H][C@]12CC[C@@]3(N=C(C)N(CC4CC4)C3=O)[C@@]1([H])CN(CC1CC1)C2
percent effect: -38.25

Compound: CCCc1nc(C(=O)N(C)Cc2cnn(-c3cccc(OC)c3)c2)cs1
percent effect: -3.056

Compound: C/C(Cl)=C/CNC(=O)[C@H]1CC[C@]2(CC1)CN(C)C(=O)c1ccccc1O2
percent effect: -12.03

Compound: CCc1nnsc1C(=O)N1CCCN(Cc2cnn(CC)c2)CC1
percent effect: 7

Compound: O=c1[nH]ccn1CCCN1CC=C(c2cnn(-c3ccccc3)c2)CC1
percent effect: 15.03

Compound: [H][C@@]12COC[C@@H](Cc3nc(C)no3)[C@]1([H])CN(c1cc(OC)ncn1)C2
percent effect: 11

Compound: CCOc1ccc(C(=O)N2CCCCC2Cn2nc(C)cc2C)cn1 (stereo not given)
percent effect: -15.47

Compound: c1ccn2c(SCC3CN=C(N4CCOCC4)S3)ncc2c1 (stereo not given)
percent effect: -31.99

Compound: CCC1(C)Cc2ccccc2-c2nc(NCCCO)nc(O)c21 (stereo not given)
percent effect: -14.88

Compound: CC[C@]12CN3C[C@](C)(CN(C1)C3c1[nH]c(=O)[nH]c(=O)c1C)C2=O (stereo not given in full)
percent effect: -54.11

Compound: Cc1cc(C)n(CCCNC(=O)C2CCCO2)n1 (stereo not given)
percent effect: -3.203

Compound: Cc1[nH]ncc1C(=O)N1CCN(CC(O)C(C)(C)C)CC1 (stereo not given)
percent effect: -11.37

Compound: CC(C)C1CN(C(=O)Nc2cnn(CC(F)F)c2)CCS1 (stereo not given)
percent effect: -89.22

Compound: Cc1ncc(C(=O)NCCNC(=O)Cc2cccc(F)c2)s1
percent effect: -9.699

Compound: CNC(=O)NC(=O)CCSc1ccccc1Cl
percent effect: -14.11

Compound: CNc1cc2c(nn1)CCN(C(=O)c1cc(F)cc(F)c1)C2
percent effect: -5.625

Compound: CC(C)C(C)NC(=O)Nc1ccc(CC(N)=O)cc1 (stereo not given)
percent effect: 1.999

Compound: CC(C)Nc1ncnc2c1CCN(Cc1ccoc1)CC2
percent effect: -26.29

Compound: CN(C)Cc1nnn2c1CN(Cc1cccnc1)CCC2.O=C(O)C(F)(F)F.O=C(O)C(F)(F)F.O=C(O)C(F)(F)F
percent effect: -10.93

Compound: O=C(O)C(F)(F)F.[H][C@]12CCCC(N(C)Cc3cccs3)[C@@]1([H])CN(C(N)=O)C2 (stereo not given in full)
percent effect: -62.92

Compound: [H][C@]12CNC[C@@]1(C(=O)NCc1c(C)noc1C)CN(C(=O)COC)C2
percent effect: -10.74

Compound: O=C(O)C(F)(F)F.[H][C@@]12CCN(Cc3c(C)noc3C)C[C@]1(C(=O)N1CCCO1)CCO2
percent effect: 4.02

Compound: O=C(Nc1nccs1)NC1CCN(Cc2ccccn2)CC1
percent effect: 4.457

Compound: O=C(NCCCNC(=O)c1cccc(O)c1)Nc1ccc(Cl)cc1
percent effect: -0.7906

Compound: CCOc1ccccc1-n1c(C2CC2)n[nH]c1=O
percent effect: -12.28

Compound: O=C(O)C(F)(F)F.O=C(O)C(F)(F)F.c1ccc(O[C@H]2CO[C@@]3(CCCN(Cc4nccs4)C3)C2)nc1
percent effect: -16.74

Compound: COCC1c2nnn(CC3CC3)c2CCN1C(=O)c1ccncn1 (stereo not given)
percent effect: -234

Compound: O=C(NCCc1nc2ccccc2s1)c1coc(CN2CCOCC2)c1
percent effect: -45.32

Compound: CCC(C)NS(=O)(=O)c1ccc(C(=O)NC2(C#N)CCC2)cc1 (stereo not given)
percent effect: -36.63

Compound: COCCOc1ccc(NC(=O)N(C)Cc2ccsc2)cn1
percent effect: -29.21

Compound: CC(C)(C)OC(=O)N1CSC[C@@H]1C(=O)NCc1ccncc1
percent effect: -16.32

Compound: Cc1ccc(OC2(C(=O)O)CCN(C(=O)c3cc(C)oc3C)CC2)cn1
percent effect: -24.05

Compound: COc1ccc(CN2CCC3(CC(C(=O)NCC(C)C)=NO3)C2)cc1 (stereo not given)
percent effect: -45.1

Compound: CNC(=O)c1cc2c(nc1N(C)C)CCN(c1ncc(F)cn1)CC2.O=C(O)C(F)(F)F
percent effect: -8.544

Compound: CC(C)C(C(N)=O)c1cccc(Cl)c1 (stereo not given)
percent effect: 0.04887

Compound: [H][C@@]12CN(C(=O)c3ccc(C)cc3)C[C@]1([H])CN(c1ncccn1)C2
percent effect: -8.111

Compound: Cc1cc(C)n(CC2CCN(CC(O)CN3CCOCC3)CC2)n1 (stereo not given)
percent effect: -38.42

Compound: Cc1noc(C2CCCN(C(=O)c3ccc(F)cc3F)C2)n1 (stereo not given)
percent effect: 16.29

Compound: CCNC(=O)C1CCN(Cn2nc(-c3ccc(F)cc3)oc2=O)CC1
percent effect: -2.883

Compound: COc1ccc2c(ccn2CCC(=O)Nc2nc[nH]n2)c1
percent effect: 14.25

Compound: COc1ccccc1CC(=O)NS(=O)(=O)c1cncc(Br)c1
percent effect: -45.11

Compound: CN(C)c1ccc(C(=O)N2C[C@@H](CN3CCCCC3)[C@@H](CO)C2)cc1
percent effect: -6.634